Measurements reported in PubChem BioAssay AID743121 (NCATS, 2013)
In all, the deposit lists about 26,000 reagents; this is an unselected part. In the full data, 167 (0.63%) were called active. 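Calls are per gene from RSA p-values that are not deposited; an individual active-marked siRNA can sensitise only weakly.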

Aim: 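Partners whose loss is lethal together with topoisomerase I blockade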 (primary screen)
Cell system: MDA-MB-231 cells, a human breast cancer line
Reagent: single siRNA against human genes, 20 nM siRNA (0.8 pmol per well)
Time to read-out: 120 h (drug added 48 h after transfection, read 72 h later)
Conditions: camptothecin 20 nM (about EC30) for 72 h; vehicle 0.1% DMSO in parallel plates
Read-out: 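Cell viability by ATP luminescence (CellTiter-Glo) as % of non-targeting siRNA wells, and the log2 ratio of viability without drug over viability with camptothecin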
Scale: log2 vehicle/camptothecin viability: higher = stronger sensitisation to camptothecin; viability with camptothecin and viability without drug: higher = more viable cells
Call rule: 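Each gene scored by redundant siRNA activity (RSA) over its individual siRNA ratios; a gene is called active at p < 0.001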

gene | PubChem SID | log2 vehicle/camptothecin viability | viability with camptothecin (% of control) | viability without drug (% of control) | Call
RNFT1 (ring finger protein, transmembrane 1) | SID164472163 | -0.0907 | 105 | 98.8 | inactive
RNFT1 (ring finger protein, transmembrane 1) | SID164472166 | -0.33 | 76.4 | 60.7 | inactive
RNFT1 (ring finger protein, transmembrane 1) | SID164472167 | -0.04 | 64.5 | 62.7 | inactive
RNFT1 (ring finger protein, transmembrane 1) | SID164472169 | -0.16 | 101 | 90.2 | inactive
GJB3 (gap junction protein beta 3) | SID164366619 | 0.161 | 77.2 | 86.3 | inactive
GJB3 (gap junction protein beta 3) | SID164366620 | 0.176 | 55.4 | 62.6 | inactive
GJB3 (gap junction protein beta 3) | SID164366621 | 0.14 | 31 | 34.1 | inactive
GJB3 (gap junction protein beta 3) | SID164366623 | -0.165 | 87.2 | 77.8 | inactive
CYP26C1 (cytochrome P450 family 26 subfamily C member 1) | SID164658522 | -0.252 | 96 | 80.7 | inactive
CYP26C1 (cytochrome P450 family 26 subfamily C member 1) | SID164658523 | 0.00187 | 33.1 | 33.1 | inactive
CYP26C1 (cytochrome P450 family 26 subfamily C member 1) | SID164658524 | -0.264 | 50 | 41.6 | inactive
CYP26C1 (cytochrome P450 family 26 subfamily C member 1) | SID164658525 | -0.42 | 81.4 | 60.8 | inactive
PSMB3 (proteasome 20S subunit beta 3) | SID164383346 | -0.387 | 6.6 | 5.05 | inactive
PSMB3 (proteasome 20S subunit beta 3) | SID164383348 | -0.0273 | 13.7 | 13.5 | inactive
PSMB3 (proteasome 20S subunit beta 3) | SID164383349 | -0.292 | 27.3 | 22.3 | inactive
ITGA3 (integrin subunit alpha 3) | SID164371918 | -0.0508 | 68.9 | 66.6 | inactive
ITGA3 (integrin subunit alpha 3) | SID164371919 | 0.291 | 65.4 | 80 | inactive
ITGA3 (integrin subunit alpha 3) | SID164371922 | -0.381 | 60.9 | 46.8 | inactive
ITGA3 (integrin subunit alpha 3) | SID164371923 | -0.00986 | 55.5 | 55.1 | inactive
NR1I3 (nuclear receptor subfamily 1 group I member 3) | SID164407774 | -0.683 | 48.4 | 30.1 | inactive
NR1I3 (nuclear receptor subfamily 1 group I member 3) | SID164407775 | 0.153 | 88.6 | 98.6 | inactive
NR1I3 (nuclear receptor subfamily 1 group I member 3) | SID164407776 | -0.581 | 74.3 | 49.6 | inactive
NR1I3 (nuclear receptor subfamily 1 group I member 3) | SID164407780 | -0.62 | 70.5 | 45.9 | inactive
KDELR3 (KDEL endoplasmic reticulum protein retention receptor 3) | SID164414945 | -0.227 | 86.2 | 73.6 | inactive
KDELR3 (KDEL endoplasmic reticulum protein retention receptor 3) | SID164414949 | -0.0833 | 79.9 | 75.4 | inactive
KDELR3 (KDEL endoplasmic reticulum protein retention receptor 3) | SID164414951 | 0.124 | 65.3 | 71.1 | inactive
KDELR3 (KDEL endoplasmic reticulum protein retention receptor 3) | SID164414956 | -0.179 | 105 | 92.6 | inactive
HDAC1 (histone deacetylase 1) | SID164368706 | 0.313 | 80 | 99.4 | inactive
HDAC1 (histone deacetylase 1) | SID164368707 | -0.213 | 91.8 | 79.2 | inactive
HDAC1 (histone deacetylase 1) | SID164368710 | 0.137 | 45.9 | 50.5 | inactive
HDAC1 (histone deacetylase 1) | SID164368711 | -0.415 | 40.3 | 30.3 | inactive
AKAP8 (A-kinase anchoring protein 8) | SID164409955 | -0.0983 | 78.7 | 73.5 | inactive
AKAP8 (A-kinase anchoring protein 8) | SID164409956 | -0.445 | 72.3 | 53.1 | inactive
AKAP8 (A-kinase anchoring protein 8) | SID164409959 | 0.849 | 42.9 | 77.2 | inactive
AKAP8 (A-kinase anchoring protein 8) | SID164409960 | -0.503 | 73.2 | 51.6 | inactive
HYAL2 (hyaluronidase 2) | SID164399241 | -0.529 | 134 | 92.7 | inactive
HYAL2 (hyaluronidase 2) | SID164399243 | 0.419 | 23.5 | 31.4 | inactive
HYAL2 (hyaluronidase 2) | SID164399246 | -0.225 | 113 | 96.7 | inactive
HYAL2 (hyaluronidase 2) | SID164399247 | 0.0981 | 87.5 | 93.6 | inactive

Only “log2 vehicle/camptothecin viability”, for 4 of the entries above:
GJB3 (gap junction protein beta 3) [SID164366620] = 0.176
GJB3 (gap junction protein beta 3) [SID164366621] = 0.14
GJB3 (gap junction protein beta 3) [SID164366623] = -0.165
CYP26C1 (cytochrome P450 family 26 subfamily C member 1) [SID164658522] = -0.252

The list goes on.
gene | PubChem SID | log2 vehicle/camptothecin viability | viability with camptothecin (% of control) | viability without drug (% of control) | Call
CA9 (carbonic anhydrase 9) | SID164356148 | 0.136 | 84.4 | 92.7 | inactive
CA9 (carbonic anhydrase 9) | SID164356150 | -0.242 | 16.2 | 13.7 | inactive
CA9 (carbonic anhydrase 9) | SID164356151 | 0.445 | 39.1 | 53.3 | inactive
BAIAP2 (BAR/IMD domain containing adaptor protein 2) | SID164411160 | -0.455 | 109 | 79.8 | inactive
BAIAP2 (BAR/IMD domain containing adaptor protein 2) | SID164411163 | -0.201 | 21.6 | 18.8 | inactive
BAIAP2 (BAR/IMD domain containing adaptor protein 2) | SID164411165 | -0.441 | 84.4 | 62.2 | inactive
BAIAP2 (BAR/IMD domain containing adaptor protein 2) | SID164411166 | 0.439 | 50.9 | 69 | inactive
NRP1 (neuropilin 1) | SID164400119 | -0.0755 | 78.7 | 74.7 | inactive
NRP1 (neuropilin 1) | SID164400120 | -0.115 | 82.9 | 76.6 | inactive
NRP1 (neuropilin 1) | SID164400121 | -0.0558 | 69 | 66.4 | inactive
NRP1 (neuropilin 1) | SID164400124 | -0.301 | 67.2 | 54.5 | inactive
NMUR1 (neuromedin U receptor 1) | SID164410250 | -0.258 | 101 | 84.2 | inactive
NMUR1 (neuromedin U receptor 1) | SID164410251 | -0.434 | 74.3 | 55 | inactive
NMUR1 (neuromedin U receptor 1) | SID164410252 | -0.538 | 94.5 | 65.1 | inactive
NMUR1 (neuromedin U receptor 1) | SID164410253 | -0.138 | 46.4 | 42.1 | inactive
TNFRSF19 (TNF receptor superfamily member 19) | SID164484916 | -0.47 | 91.7 | 66.2 | inactive
TNFRSF19 (TNF receptor superfamily member 19) | SID164484918 | -0.146 | 108 | 97.4 | inactive
TNFRSF19 (TNF receptor superfamily member 19) | SID164484922 | 0.156 | 69.7 | 77.6 | inactive
DMRT1 (doublesex and mab-3 related transcription factor 1) | SID164361758 | 0.247 | 77.7 | 92.2 | inactive
DMRT1 (doublesex and mab-3 related transcription factor 1) | SID164361762 | -0.753 | 54.6 | 32.4 | inactive
DMRT1 (doublesex and mab-3 related transcription factor 1) | SID164361763 | -0.0738 | 94.3 | 89.6 | inactive
TGM3 (transglutaminase 3) | SID164391694 | -0.384 | 96.4 | 73.9 | inactive
TGM3 (transglutaminase 3) | SID164391697 | -0.574 | 42 | 28.2 | inactive
TGM3 (transglutaminase 3) | SID164391698 | -0.588 | 93.4 | 62.1 | inactive
TGM3 (transglutaminase 3) | SID164391700 | -0.0755 | 75.6 | 71.8 | inactive
CLCA3P (chloride channel accessory 3, pseudogene) | SID164404967 | -0.393 | 76.6 | 58.4 | inactive
CLCA3P (chloride channel accessory 3, pseudogene) | SID164404968 | -0.237 | 84.5 | 71.7 | inactive
CLCA3P (chloride channel accessory 3, pseudogene) | SID164404969 | -0.169 | 115 | 103 | inactive
CLCA3P (chloride channel accessory 3, pseudogene) | SID164404970 | -0.701 | 95.2 | 58.6 | inactive
